Measured values as given in patent US20250345464A1, “GENE THERAPY FOR TREATING NEURODEGENERATIVE DISEASES” (ABRAIN, priority 2021, published 2025).
At least one peptide structure holds a part that was inferred or is arguable (an end, a ring closure or a residue).

System: N2a cells
Assay type: cell-based
Conditions: WT Aβ+variant, 10 μM final, 24 hours, versus Aβ42 WT alone

## CC[C@H](C)[C@H](NC(=O)[C@H](C)NC(=O)CNC(=O)[C@H](CCCCN)NC(=O)[C@H](CC(N)=O)NC(=O)[C@H](CO)NC(=O)CNC(=O)[C@@H](NC(=O)[C@H](CC(=O)O)NC(=O)[C@H](CCC(=O)O)NC(=O)[C@H](CC(=O)O)NC(=O)[C@H](Cc1ccccc1)NC(=O)[C@H](CC(=O)O)NC(=O)[C@@H]1CCCN1C(=O)[C@H](CC(C)C)NC(=O)[C@H](CCCCN)NC(=O)[C@H](CCC(N)=O)NC(=O)[C@H](Cc1c[nH]cn1)NC(=O)[C@H](Cc1c[nH]cn1)NC(=O)[C@@H](NC(=O)[C@H](CCC(=O)O)NC(=O)[C@H](Cc1ccc(O)cc1)NC(=O)CNC(=O)[C@H](CO)NC(=O)[C@H](CC(=O)O)NC(=O)[C@H](Cc1c[nH]cn1)NC(=O)[C@H](CCCNC(=N)N)NC(=O)[C@H](Cc1ccccc1)NC(=O)[C@H](CCC(=O)O)NC(=O)[C@H](C)NC(=O)[C@@H](N)CC(=O)O)C(C)C)C(C)C)C(=O)N[C@H](C(=O)NCC(=O)N[C@@H](CC(C)C)C(=O)N[C@@H](CCSC)C(=O)N[C@H](C(=O)NCC(=O)NCC(=O)N[C@H](C(=O)N[C@H](C(=O)N[C@H](C(=O)N[C@@H](C)C(=O)O)[C@@H](C)CC)C(C)C)C(C)C)C(C)C)[C@@H](C)CC [V18P/F19D/A21D, Aβ(V18P/F19D/A21D)]
  cell viability after co-incubation of WT Aβ42 with variant during oligomer formation: better cell viability than Aβ42 WT
